According to PMC3499365:
No constants are given. Whether binding was seen depends on the method and setting. In cells and extracts the contact can be indirect. Some binding calls cover weakened binding; strength is not graded here. Tags and fused reporters may be left off the sequences shown.

Amino acid sequences for entries named in this document (tags omitted).
UniProt Q9NQT5: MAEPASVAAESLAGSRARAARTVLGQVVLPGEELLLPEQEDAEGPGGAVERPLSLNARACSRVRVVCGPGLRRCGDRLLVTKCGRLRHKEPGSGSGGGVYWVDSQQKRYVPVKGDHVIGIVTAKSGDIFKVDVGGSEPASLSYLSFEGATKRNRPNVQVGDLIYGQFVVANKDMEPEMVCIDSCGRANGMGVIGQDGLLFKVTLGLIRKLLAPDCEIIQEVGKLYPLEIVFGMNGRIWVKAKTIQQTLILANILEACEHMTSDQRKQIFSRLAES

How the values were obtained:
[1] = molecular target: T1, GFP-PABPN1 (poly(A)-binding protein nuclear 1) (human) (UniProt Q86U42); assay: co-IP; GFP immunoprecipitates from extracts of HEK293T cells that stably express GFP or GFP-PABPN1 and were transfected with Flag-hRRP40; lysis in buffer B (50 mM Tris-HCl pH 7.5, 150 mM NaCl, 1% Triton-X-100, 10% glycerol, 2 mM MgCl2, 1 mM DTT), beads washed four times in lysis buffer; Western blot with anti-Flag and anti-GFP
T1 sequence: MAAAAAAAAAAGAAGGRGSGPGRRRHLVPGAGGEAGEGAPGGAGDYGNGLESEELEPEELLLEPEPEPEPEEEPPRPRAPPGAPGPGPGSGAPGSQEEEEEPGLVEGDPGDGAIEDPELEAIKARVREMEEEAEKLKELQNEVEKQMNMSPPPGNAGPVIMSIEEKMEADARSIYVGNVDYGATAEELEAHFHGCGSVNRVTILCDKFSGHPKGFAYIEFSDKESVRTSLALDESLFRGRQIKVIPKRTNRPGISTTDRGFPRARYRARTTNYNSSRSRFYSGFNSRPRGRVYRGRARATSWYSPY

[2] = molecular target: T2, endogenous hRRP6 (human (endogenous in HEK293T)) (UniProt Q01780); assay: co-IP; hRRP6 immunoprecipitates (affinity-purified antibody to endogenous hRRP6) from extracts of HEK293T cells that stably express GFP or GFP-PABPN1; lysis in buffer B (50 mM Tris-HCl pH 7.5, 150 mM NaCl, 1% Triton-X-100, 10% glycerol, 2 mM MgCl2, 1 mM DTT), beads washed four times in lysis buffer; Western blot with anti-hRRP6 and anti-GFP
T2 sequence: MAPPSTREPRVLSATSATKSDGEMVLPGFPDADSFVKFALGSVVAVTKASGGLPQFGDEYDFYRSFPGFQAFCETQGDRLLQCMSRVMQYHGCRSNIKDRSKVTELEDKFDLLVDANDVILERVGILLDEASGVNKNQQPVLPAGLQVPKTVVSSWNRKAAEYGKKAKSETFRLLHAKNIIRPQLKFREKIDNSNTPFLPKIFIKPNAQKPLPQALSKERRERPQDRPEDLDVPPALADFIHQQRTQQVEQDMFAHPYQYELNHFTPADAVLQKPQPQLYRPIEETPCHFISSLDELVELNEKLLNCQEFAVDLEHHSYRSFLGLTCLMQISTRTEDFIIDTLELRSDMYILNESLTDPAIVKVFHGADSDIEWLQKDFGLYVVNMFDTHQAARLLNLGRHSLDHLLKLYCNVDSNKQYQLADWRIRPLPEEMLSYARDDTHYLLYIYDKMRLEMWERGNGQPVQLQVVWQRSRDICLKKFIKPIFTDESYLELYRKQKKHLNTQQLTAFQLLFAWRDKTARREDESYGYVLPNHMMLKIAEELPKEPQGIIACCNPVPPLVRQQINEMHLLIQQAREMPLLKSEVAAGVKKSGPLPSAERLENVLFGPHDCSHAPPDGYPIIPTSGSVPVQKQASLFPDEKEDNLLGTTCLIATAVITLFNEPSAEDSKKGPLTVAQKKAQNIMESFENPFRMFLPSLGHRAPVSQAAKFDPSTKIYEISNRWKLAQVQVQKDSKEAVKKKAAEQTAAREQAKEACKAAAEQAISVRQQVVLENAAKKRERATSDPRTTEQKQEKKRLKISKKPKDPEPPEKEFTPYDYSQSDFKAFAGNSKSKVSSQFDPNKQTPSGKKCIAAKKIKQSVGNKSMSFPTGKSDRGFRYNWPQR

With “Flag-tagged hRRP40 (from UniProt Q9NQT5 1-275)” the binding [1] was “binds”.

B1: GFP-PABPN1 (poly(A)-binding protein nuclear 1) (protein, UniProt Q86U42 1-306)
chain: MAAAAAAAAAAGAAGGRGSGPGRRRHLVPGAGGEAGEGAPGGAGDYGNGLESEELEPEELLLEPEPEPEPEEEPPRPRAPPGAPGPGPGSGAPGSQEEEEEPGLVEGDPGDGAIEDPELEAIKARVREMEEEAEKLKELQNEVEKQMNMSPPPGNAGPVIMSIEEKMEADARSIYVGNVDYGATAEELEAHFHGCGSVNRVTILCDKFSGHPKGFAYIEFSDKESVRTSLALDESLFRGRQIKVIPKRTNRPGISTTDRGFPRARYRARTTNYNSSRSRFYSGFNSRPRGRVYRGRARATSWYSPY
With B1 the binding [2] was “binds”.
